This experiment addresses cell cycle checkpoint kinase 2 (CHK2) (chicken (endogenous in granulosa cells)). The experiment is described as follows: co-IP; anti-CHK2 antibody immobilised on Protein A/G magnetic beads; supernatants of cell lysates; washed three times with RIPA lysis buffer; blots probed with anti-FoxO3a, FoxK and FoxO4.

No constants are given. Whether binding was seen depends on the method and setting. Binding seen in cells or lysates may run through a third protein. Binding calls can cover weak binding; strength is not graded here.

B1: FoxO3a (protein, UniProt F1NNE8 1-660)
chain: MAEASPPGPLSPLDVELDPEFEPQSRPRSCTWPLQRPELQASPAKPAGEPPADAASMIPEEEDDDEEGGGAAMAVGGAAPAGGEAAAAGGPEEAARPPVPLPGGGPEGPGPAPGGAAAAAGGGGLSGGGPAAAAPRKCSSRRNAWGNLSYADLITRAIESSPEKRLTLSQIYDWMVRCVPYFKDKGDNNSSAGWKNSIRHNLSLHSRFIRVQNEGTGKSSWWMINPDGGKVGKAPRRRAVSMDNSNKYTKSRGRAAKKKAALQTAQEASEDSPSQLSKWPGSPTSRSSDELDAWTDFRSRTNSNASTISGRLSPILASTELDDVQDDDAPLSPMLYSSPSSLSPSVNKPCTVELPRLTDMAGTMNLNDGLTDNLMDDLLDNITLPSSQQSPTGGMMQRSSSFPYGSKGSGLGSPSSSFNNAVFGPSSLNSLRQSPMQTIQENKQATFSSISHYNNQTLQDLLASDALSHSDVMMTQSDPLMSQASTAVSAQNSRRNIMLRNDPMMSFAAQSSQGGLVNQSLPHHQHQSHSSPLSGSRALSNSISNIGLNDSNSLGSKHQQSPVNQSMQTLSDPLSGSSLYSSSMNLPVMGHEKFPSDLDLDIFNGSLECDMESIIRSELMDADGLDFNFDSLISAQNVVSLNVGNFTGAKQASSQSWVPG
B1: the binding entry is “binds”.

Values taken from article PMC9031212.
